# Some of the results follow. Only hits are listed; about a third recur on repeated control peptides.
# Chains of the proteins cited; added tags and fusions are not shown.
# GRWD1, Q9BQ67, UniProt Q9BQ67, whole entry: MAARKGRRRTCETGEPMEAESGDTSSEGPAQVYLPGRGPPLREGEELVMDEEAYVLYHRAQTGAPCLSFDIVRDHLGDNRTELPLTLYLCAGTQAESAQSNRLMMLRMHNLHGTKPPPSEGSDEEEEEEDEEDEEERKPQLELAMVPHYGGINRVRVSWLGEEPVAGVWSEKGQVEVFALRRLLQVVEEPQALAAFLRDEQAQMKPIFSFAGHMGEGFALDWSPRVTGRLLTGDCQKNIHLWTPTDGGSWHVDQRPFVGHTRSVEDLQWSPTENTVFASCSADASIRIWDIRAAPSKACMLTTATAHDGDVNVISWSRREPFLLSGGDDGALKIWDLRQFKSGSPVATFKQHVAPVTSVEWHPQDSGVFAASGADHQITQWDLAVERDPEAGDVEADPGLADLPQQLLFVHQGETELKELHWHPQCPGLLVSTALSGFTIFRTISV
# PLK1, P53350, UniProt P53350, whole entry: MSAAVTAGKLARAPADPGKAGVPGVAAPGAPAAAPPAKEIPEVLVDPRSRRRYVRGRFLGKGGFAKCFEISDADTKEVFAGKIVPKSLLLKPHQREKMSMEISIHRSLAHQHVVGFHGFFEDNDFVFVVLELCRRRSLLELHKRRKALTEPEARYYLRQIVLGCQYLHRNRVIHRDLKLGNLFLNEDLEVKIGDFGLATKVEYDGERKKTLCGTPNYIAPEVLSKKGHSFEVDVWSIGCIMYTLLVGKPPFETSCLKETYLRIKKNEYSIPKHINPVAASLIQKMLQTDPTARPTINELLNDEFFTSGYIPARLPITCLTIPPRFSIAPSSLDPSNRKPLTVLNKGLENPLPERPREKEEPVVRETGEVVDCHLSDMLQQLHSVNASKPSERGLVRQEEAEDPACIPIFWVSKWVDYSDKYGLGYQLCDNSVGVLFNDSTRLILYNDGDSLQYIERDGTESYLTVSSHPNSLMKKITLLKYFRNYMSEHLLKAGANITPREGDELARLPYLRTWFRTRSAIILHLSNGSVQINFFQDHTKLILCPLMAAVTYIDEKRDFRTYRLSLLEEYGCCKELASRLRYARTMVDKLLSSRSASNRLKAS
# What was measured:
# Test in all cases: PRISMA enrichment of interactor (LFQ) in peptide spot vs all other peptide spots (log2 fold change); higher = stronger / more specific binding of the interactor to the peptide
# ABT1, Q9ULW3 = target: ABT1, Q9ULW3
# Method: (§1)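 PRISMA: 221 full-length sORF-encoded peptides (3-15 aa), plus SOS1/GLUT1 control peptides, were spot-synthesized on cellulose membranes in triplicate. Membranes were incubated with HEK293T lysate, and bound proteins were identified by LC-MS/MS with LFQ. Enrichment is the log2 fold change versus all other peptide spots; only significant interactors are listed (cutoff c=6, x0=2.8).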
# CDCA7L, Q96GN5 = target: CDCA7L, Q96GN5
# Method: as §1
# CPSF3, Q9UKF6 = target: CPSF3, Q9UKF6
# Method: as §1
# CSNK1E, P49674 = target: CSNK1E, P49674
# Method: as §1
# DNAJA3, Q96EY1 = target: DNAJA3, Q96EY1
# Method: as §1
# EMILIN1, Q9Y6C2 = target: EMILIN1, Q9Y6C2
# Method: as §1
# FAM168A, Q92567 = target: FAM168A, Q92567
# Method: as §1
# FAM98A, Q8NCA5 = target: FAM98A, Q8NCA5
# Method: as §1
# GRWD1, Q9BQ67 = target: GRWD1, Q9BQ67
# Method: as §1
# PLK1, P53350 = target: PLK1, P53350
# Method: as §1
# POLDIP2, Q9Y2S7 = target: POLDIP2, Q9Y2S7
# Method: as §1
# RAB2A, P61019 = target: RAB2A, P61019
# Method: as §1
# SCPEP1, Q9HB40 = target: SCPEP1, Q9HB40
# Method: as §1
# SSBP1, Q04837 = target: SSBP1, Q04837
# Method: as §1
# TOMM40, O96008 = target: TOMM40, O96008
# Method: as §1
# ZBTB10, Q96DT7 = target: ZBTB10, Q96DT7
# Method: as §1
# ZNF768, Q9H5H4 = target: ZNF768, Q9H5H4
# Method: as §1
binder,measurement,setting,value
MVLHSHPEFLS [CYLD],PRISMA enrichment of interactor (log2),"ABT1, Q9ULW3",3.92
same,PRISMA enrichment of interactor (log2),"CDCA7L, Q96GN5",4.03
same,PRISMA enrichment of interactor (log2),"CPSF3, Q9UKF6",4.59
same,PRISMA enrichment of interactor (log2),"CSNK1E, P49674",6.36
same,PRISMA enrichment of interactor (log2),"DNAJA3, Q96EY1",6.32
same,PRISMA enrichment of interactor (log2),"EMILIN1, Q9Y6C2",5.05
same,PRISMA enrichment of interactor (log2),"FAM168A, Q92567",5.15
same,PRISMA enrichment of interactor (log2),"FAM98A, Q8NCA5",7.76
same,PRISMA enrichment of interactor (log2),"GRWD1, Q9BQ67",6.94
same,PRISMA enrichment of interactor (log2),"PLK1, P53350",7.8
same,PRISMA enrichment of interactor (log2),"POLDIP2, Q9Y2S7",6.11
same,PRISMA enrichment of interactor (log2),"RAB2A, P61019",6.22
same,PRISMA enrichment of interactor (log2),"SCPEP1, Q9HB40",6.15
same,PRISMA enrichment of interactor (log2),"SSBP1, Q04837",5.09
same,PRISMA enrichment of interactor (log2),"TOMM40, O96008",5.32
same,PRISMA enrichment of interactor (log2),"ZBTB10, Q96DT7",4.92
same,PRISMA enrichment of interactor (log2),"ZNF768, Q9H5H4",6.13

# Pulled one by one from the list above (2):
binder,measurement,setting,value
MVLHSHPEFLS [CYLD],PRISMA enrichment of interactor (log2),"SSBP1, Q04837",5.09
same,PRISMA enrichment of interactor (log2),"FAM168A, Q92567",5.15

# Source: the supplement of paper PMC10032668
